Here are results for 1 substance from publication doi:10.1101/2025.05.21.655360.

Chains of the proteins cited; added tags and fusions are not shown. Lines headed by an entry give the natural chain unless they say otherwise; changes in a name come on top.
UniProt P05556: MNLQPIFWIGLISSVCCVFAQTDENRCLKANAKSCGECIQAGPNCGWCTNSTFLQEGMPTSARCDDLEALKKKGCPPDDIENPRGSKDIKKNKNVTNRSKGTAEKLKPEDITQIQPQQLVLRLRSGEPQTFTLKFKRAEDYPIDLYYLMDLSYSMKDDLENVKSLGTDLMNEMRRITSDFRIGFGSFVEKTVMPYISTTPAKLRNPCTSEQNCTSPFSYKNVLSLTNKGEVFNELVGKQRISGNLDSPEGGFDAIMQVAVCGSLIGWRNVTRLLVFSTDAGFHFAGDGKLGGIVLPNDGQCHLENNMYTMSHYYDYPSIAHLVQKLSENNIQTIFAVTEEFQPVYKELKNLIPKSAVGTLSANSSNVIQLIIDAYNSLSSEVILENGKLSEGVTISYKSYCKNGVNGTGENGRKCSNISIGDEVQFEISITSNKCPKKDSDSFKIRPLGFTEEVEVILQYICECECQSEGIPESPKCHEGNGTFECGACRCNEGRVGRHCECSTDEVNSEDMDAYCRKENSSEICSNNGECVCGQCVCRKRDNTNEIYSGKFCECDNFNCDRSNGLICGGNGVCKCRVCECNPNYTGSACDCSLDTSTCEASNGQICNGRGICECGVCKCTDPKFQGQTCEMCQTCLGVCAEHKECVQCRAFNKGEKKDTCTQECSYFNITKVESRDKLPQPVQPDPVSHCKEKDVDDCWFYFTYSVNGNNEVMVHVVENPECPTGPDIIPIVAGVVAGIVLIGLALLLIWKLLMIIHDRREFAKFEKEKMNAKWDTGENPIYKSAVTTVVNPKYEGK

These are yes or no findings as the source states them, for the method shown. Binding seen in cells or lysates may run through a third protein. Some results given as binding are weak or reduced against the parent protein; the word gives no strength. Sequences can lack the tags named with a protein.

The target of the test is T1, V5-tagged full-length Semaphorin 7a (666 aa), overexpressed in MCF7 cells (UniProt O75326).
T1 sequence: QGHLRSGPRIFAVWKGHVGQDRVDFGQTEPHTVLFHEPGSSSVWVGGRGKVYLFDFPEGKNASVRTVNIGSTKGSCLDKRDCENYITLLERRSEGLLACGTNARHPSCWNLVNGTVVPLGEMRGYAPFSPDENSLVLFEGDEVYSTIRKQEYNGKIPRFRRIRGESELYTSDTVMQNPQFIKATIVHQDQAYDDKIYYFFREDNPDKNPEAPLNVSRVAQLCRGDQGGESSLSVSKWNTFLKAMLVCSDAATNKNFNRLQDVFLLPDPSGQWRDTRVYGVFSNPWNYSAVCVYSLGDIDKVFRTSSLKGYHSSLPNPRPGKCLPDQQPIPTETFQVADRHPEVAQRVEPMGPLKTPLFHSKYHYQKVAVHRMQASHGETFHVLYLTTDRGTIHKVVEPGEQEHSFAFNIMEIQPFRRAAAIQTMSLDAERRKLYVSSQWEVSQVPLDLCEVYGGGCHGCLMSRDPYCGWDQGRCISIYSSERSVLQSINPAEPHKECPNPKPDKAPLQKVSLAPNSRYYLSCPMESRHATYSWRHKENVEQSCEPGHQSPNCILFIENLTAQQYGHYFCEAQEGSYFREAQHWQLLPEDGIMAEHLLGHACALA
In words: co-IP.

As for “Integrin β1 (from UniProt P05556 21-798) (receptor)”, the binding result is reported as “binds”.
